Laboratory results: PubChem BioAssay AID200 (DTP/NCI, 2004)
The list shows only some results of the screen, not a fair sample: it gathers tests that were run many times, whatever their T/C, doses with no T/C, and many T/C values between a quarter and a half above the control. Further doses and runs are listed elsewhere. T/C: endpoint of the treated group in % of that of the vehicle group. Some entries give survivors of the animals treated and no T/C: the source holds a T/C of zero for them, seemingly a mark for toxic or unscored doses. Some doses without a T/C left all or most animals alive at the check, yet need not have been tolerated: survival well below the control is almost never listed, so the zero probably covers shortened survival too. Survivors were counted at the toxicity check, usually on the fifth day, unless a day is given; later deaths do not show. Schedules are NCI's codes, taken here to give the interval after Q, in days (D) or hours (H), and the number of doses after X. Signs of the kind (2×) count equal records among those shown. Some entries hold several experiments; the values are given in rising order. Where survival is the endpoint, the PubChem record calls one and a half times the control and up active, and a quarter to a half above the control has no call in these data; cut-offs in other NCI protocols can differ. Some T/C values are followed by the survivors on the day toxicity was checked, most often the fifth; where none is given, no animal had died by that day. *1 amine or outer side, *2 acyl side, *3 side chain or, on linkers, in order; H or OH if unused. Where a SMILES comes first, the peptide text is derived from it. Bridges are numbered along the chain shown (N, C = ends). Roman numbers before positions name the chains, in order. [ ]: non-standard residue; d: D form. Actinocin(9to1) = Cc1c2oc3c(C)ccc(C(=O)[*:1])c3nc-2c(C(=O)[*:2])c(N)c1=O; NMeA = CN[CH](C)C(=O)O; Sar = CNCC(=O)O

Tested on: B6C3F1 mice, B16 melanoma ip, median survival T/C
Experiment: NCI In Vivo Anticancer Drug Screen. Data for tumor model B16 Melanoma (intraperitoneal) in B6C3F1 mice
Details: T/C endpoint: median survival time, higher T/C = longer survival
Procedure, shortened: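 Antitumor effect was judged in mice with transplanted tumors by dividing the treated group's survival measure by that of vehicle controls.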

[1] = dose: 50.0 mg/kg/injection, schedule: Q01DX009 (ip), vehicle: saline with Tween-80
[2] = dose: 100.0 mg/kg/injection, schedule: Q01DX009 (ip), vehicle: saline with Tween-80
[3] = dose: 200.0 mg/kg/injection, schedule: Q01DX009 (ip), vehicle: saline with Tween-80
[4] = dose: 400.0 mg/kg/injection, schedule: Q01DX009 (ip), vehicle: saline with Tween-80
[5] = dose: 200.0 mg/kg/injection, schedule: Q01DX009 (ip), vehicle: saline
[6] = dose: 40.0 mg/kg/injection, schedule: Q01DX009 (ip), vehicle: saline with Tween-80
[7] = dose: 100.0 mg/kg/injection, schedule: Q01DX009 (ip), vehicle: Klucel (hydroxypropylcellulose) (HPC)
[8] = dose: 400.0 mg/kg/injection, schedule: Q01DX009 (ip), vehicle: Klucel (hydroxypropylcellulose) (HPC)

O=C(Nc1cccc(Cl)c1)ON1C(=O)C2C(C1=O)C1(Cl)C(Cl)C(Cl)C2(Cl)C1(Cl)Cl (stereo unspecified)
survivor count (dose: 25.0 mg/kg/injection, schedule: Q01DX009 (ip), vehicle: saline with Tween-80): 10 of 10 | survivor count [1]: 10 of 10 | survivor count [2]: 10 of 10 | survivor count [3]: 10 of 10 | survivor count [4]: 5 of 10

CN1CCCN(C(c2ccccc2)c2ccc(Br)cc2)CC1 (stereo unspecified)
survivor count (dose: 72.0 mg/kg/injection, schedule: Q01DX009 (ip), vehicle: saline): 10 of 10

O=S(=O)(O)c1cc(N=C=S)ccc1/C=C/c1ccc(N=C=S)cc1S(=O)(=O)O
survivor count [5]: 4 of 10

Nc1ccc(Cn2ccc3c4c(N)nc(N)nc4ccc32)cc1
survivor count (dose: 20.0 mg/kg/injection, schedule: Q01DX009 (ip), vehicle: saline with Tween-80): 10 of 10 (2×) | survivor count [6]: 0 of 10 (2×)

O=C1NC(=O)C2C3C=CC(C12)C1C2C(=O)NC(=O)C2C31 (stereo unspecified)
T/C [1]: 139 % of control | survivor count (dose: 91.4 mg/kg/injection, schedule: Q01DX009 (ip), vehicle: water): 7 of 9 | survivor count [3]: 7 of 10 and 8 of 8 | survivor count [4]: 1 of 10 and 3 of 10

CC(=O)O[C@@H]1C(=O)C=C(C)[C@@H]2[C@@H](OC(=O)C=C(C)C)[C@H]3OC(=O)C[C@H]4[C@@H](C)[C@@H](O)[C@]5(O)OC[C@]34[C@H]5[C@@]12C
T/C (dose: 0.5 mg/kg/injection, schedule: Q01DX009 (ip), vehicle: distilled water + Tween-80): 127 % of control | T/C (dose: 1.0 mg/kg/injection, schedule: Q01DX009 (ip), vehicle: distilled water + Tween-80): 137 % of control | T/C (dose: 2.0 mg/kg/injection, schedule: Q01DX009 (ip), vehicle: distilled water + Tween-80): 145 % of control [9 of 10 alive] | T/C (dose: 4.0 mg/kg/injection, schedule: Q01DX005 (ip), vehicle: distilled water + Tween-80): 137 % of control [9 of 10 alive]

CN1CCN(c2ccc([N+](=O)[O-])c3no[n+]([O-])c23)CC1
T/C (dose: 10.0 mg/kg/injection, schedule: Q01DX009 (ip), vehicle: saline with Tween-80): 139 % of control | survivor count [6]: 9 of 10 | survivor count (dose: 80.0 mg/kg/injection, schedule: Q01DX009 (ip), vehicle: saline with Tween-80): 5 of 10

[Cl][Pt+2][Cl].[NH-]c1cc(Cl)c(Cl)c(Cl)c1[NH-]
survivor count (dose: 160.0 mg/kg/injection, schedule: Q01DX009 (ip), vehicle: distilled water + Tween-80): 6 of 10

C=Cc1cc(OC)c2c(c1)c(=O)oc1c2cc(OC)c2c(O)ccc(C3OC(C(C)O)C(O)C3O)c21 (stereo unspecified)
T/C (dose: 50.0 mg/kg/injection, schedule: Q01DX009 (ip), vehicle: Klucel (hydroxypropylcellulose) (HPC)): 132 % of control | T/C [7]: 145 % of control | survivor count (dose: 200.0 mg/kg/injection, schedule: Q01DX009 (ip), vehicle: Klucel (hydroxypropylcellulose) (HPC)): 4 of 10 | survivor count [8]: 2 of 10

N=C(N)SCc1c2ccccc2c(CSC(=N)N)c2ccccc12
T/C (dose: 3.12 mg/kg/injection, schedule: Q01DX009 (ip), vehicle: saline): 144 % of control

CC1c2ccccc2CC(CCN(C)C)c2ccccc21 (stereo unspecified)
survivor count [2]: 5 of 10

[Cl][Hg][Cl]
survivor count (dose: 1.0 mg/kg/injection, schedule: Q01DX009 (ip), vehicle: saline): 10 of 10 | survivor count (dose: 2.0 mg/kg/injection, schedule: Q01DX009 (ip), vehicle: saline): 9 of 10 and 10 of 10 | survivor count (dose: 4.0 mg/kg/injection, schedule: Q01DX009 (ip), vehicle: saline): 10 of 10 | survivor count (dose: 8.0 mg/kg/injection, schedule: Q01DX009 (ip), vehicle: saline): 0 of 10 | survivor count (dose: 16.0 mg/kg/injection, schedule: Q01DX009 (ip), vehicle: saline): 0 of 10 | survivor count (dose: 32.0 mg/kg/injection, schedule: Q01DX009 (ip), vehicle: saline): 0 of 10

CC(=O)OCC1(C)NC(=O)c2ccccc2O1 (stereo unspecified)
survivor count [3]: 10 of 10 | survivor count [4]: 10 of 10

COC1=C(C)C(=O)C2=C(C1=O)C(CO)N1C(C#N)C3CC4C(C1C2N1CCOC41)N3C (stereo unspecified)
T/C (dose: 0.25 mg/kg/injection, schedule: Q01DX009 (ip), vehicle: saline + alcohol): 128 % of control | T/C (dose: 1.0 mg/kg/injection, schedule: Q01DX009 (ip), vehicle: saline + alcohol): 134 % of control | survivor count (dose: 2.0 mg/kg/injection, schedule: Q01DX009 (ip), vehicle: acid diluted with saline): 10 of 10 | survivor count (dose: 2.0 mg/kg/injection, schedule: Q01DX009 (ip), vehicle: saline + alcohol): 7 of 10, 8 of 10, 9 of 10 | survivor count (dose: 4.0 mg/kg/injection, schedule: Q01DX009 (ip), vehicle: acid diluted with saline): 1 of 10 | survivor count (dose: 8.0 mg/kg/injection, schedule: Q01DX009 (ip), vehicle: acid diluted with saline): 0 of 10

COc1ccc2c(c1)-c1nn(CCCN(C)C)c3ccc([N+](=O)[O-])c(c13)N2
T/C (dose: 6.25 mg/kg/injection, schedule: Q01DX009 (ip), vehicle: water): 128 and 129 % of control | T/C (dose: 12.5 mg/kg/injection, schedule: Q01DX009 (ip), vehicle: water): 133 [9 of 10 alive] and 135 % of control | survivor count (dose: 25.0 mg/kg/injection, schedule: Q01DX009 (ip), vehicle: water): 10 of 10

CNC(=S)C#N
survivor count (dose: 50.0 mg/kg/injection, schedule: Q01DX009 (ip), vehicle: saline + Tween-80 + alcohol): 9 of 10 | survivor count (dose: 100.0 mg/kg/injection, schedule: Q01DX009 (ip), vehicle: saline + Tween-80 + alcohol): 5 of 10 | survivor count (dose: 200.0 mg/kg/injection, schedule: Q01DX009 (ip), vehicle: saline + Tween-80 + alcohol): 0 of 10

NCCCNCCCCNC(=O)C(O)NC(=O)CC(O)CCCCN=C(N)N (stereo unspecified)
survivor count [5]: 1 of 10 | survivor count (dose: 400.0 mg/kg/injection, schedule: Q01DX009 (ip), vehicle: saline): 0 of 10

CCC1=C[C@H]2CN(CCc3c([nH]c4ccccc34)[C@@](C(=O)OC)(c3cc4c(cc3OC)N(C)[C@H]3[C@@](O)(C(=O)NN)[C@H](O)[C@]5(CC)C=CCN6CC[C@]43[C@@H]65)C2)C1
T/C (dose: 62.5 micrograms/kg/injection, schedule: Q01DX009 (ip), vehicle: water): 136 % of control | survivor count (dose: 1000.0 micrograms/kg/injection, schedule: Q01DX009 (ip), vehicle: water): 1 of 10 | survivor count (dose: 2000.0 micrograms/kg/injection, schedule: Q01DX009 (ip), vehicle: water): 4 of 10

Cc1ccc(N)c(N)c1
survivor count [4]: 4 of 10 | survivor count (dose: 800.0 mg/kg/injection, schedule: Q01DX009 (ip), vehicle: saline with Tween-80): 0 of 10

O=NN(CCCl)C(=O)NC1[C@H](O)CCC[C@@H]1O (stereo partly specified)
survivor count (dose: 10.0 mg/kg/injection, schedule: Q01DX009 (ip), vehicle: saline): 10 of 10 | survivor count (dose: 20.0 mg/kg/injection, schedule: Q01DX009 (ip), vehicle: saline): 10 of 10

Cc1c2oc3c(C)ccc(C(=O)NC4C(=O)NC(C(C)C)C(=O)N5CCCC5C(=O)N(C)CC(=O)N(C)C(C)C(=O)OC4C)c3nc-2c(C(=O)NC2C(=O)NC(C(C)C)C(=O)N3CCCC3C(=O)N(C)CC(=O)N(C)C(C)C(=O)OC2C)c(N)c1=O (stereo unspecified) (I: TVP[Sar][NMeA] / II: TVP[Sar][NMeA]; ester I:1-I:C, II:1-II:C; linker I:N-II:N via Actinocin(9to1); configuration not given here)
survivor count (dose: 8.0 mg/kg/injection, schedule: Q04DX003 (ip), vehicle: saline + alcohol): 6 of 8

C/C(=N\NC(=S)N1CCN(c2ccccn2)CC1)c1ccccn1
survivor count (dose: 50.0 mg/kg/injection, schedule: Q01DX009 (ip), vehicle: water): 6 of 10 | survivor count (dose: 100.0 mg/kg/injection, schedule: Q01DX009 (ip), vehicle: water): 0 of 10

COC(=O)Nc1nc2ccc(SC)cc2c(=O)[nH]1
survivor count [7]: 10 of 10 | survivor count [8]: 10 of 10
